# Source: the supplement of paper PMC4604168 (melanoma cell lines)
# This is one part of the list. Many values rest on one well or one pass, so single values are uncertain.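 The apoptosis fraction was the count of cleaved-PARP antibody-stained nuclei relative to all DNA-stained nuclei, imaged in 1,536-well plates. Screening doses were set so most cells survived, and baseline and induced cleaved-PARP levels vary greatly across cell lines.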
# Tested on: A2058
# Assay: cleaved PARP positive nuclei fraction relative to DMSO control; melanoma cells; higher = more apoptosis
# Conditions: library dose: low library concentration; 72 h
row,SMILES,cleaved PARP positive nuclei fraction
1,"CCCCCCCCc1ccc(CCC(N)(CO)CO)cc1 [fingolimod] + Cc1ccc(NC(=O)c2cccc(N(C)C)c2)cc1NC(=O)c1ccc(O)cc1 [ZM336372] (first compound 2 µM, partner dose 2 µM)",136%
2,"Cn1sc(=O)n(Cc2ccccc2)c1=O + Cn1cc(/C=C2\C(=O)Nc3cccnc32)c2ccccc21 [GW441756] (first compound 0.4 µM, partner dose 0.4 µM)",31.3%
3,"CCN(CC)CCNC(=O)c1c(C)[nH]c(/C=C2\C(=O)Nc3ccc(F)cc32)c1C [sunitinib] + CC1(C)NC(=O)N(c2ccc([N+](=O)[O-])c(C(F)(F)F)c2)C1=O [nilutamide] (first compound 0.4 µM, partner dose 1 µM)",135%
4,"CN(c1ncccc1CNc1nc(Nc2ccc3c(c2)CC(=O)N3)ncc1C(F)(F)F)S(C)(=O)=O + COc1cc2c(Oc3ccc4[nH]c(C)cc4c3F)ncnc2cc1OCCCN1CCCC1 [cediranib] (first compound 0.08 µM, partner dose 0.4 µM)",53.5%
5,"C[C@@H](N)c1ccc(C(=O)Nc2ccnc3[nH]ccc23)cc1 + COc1cc2ncnc(Nc3ccc(Oc4ccccc4)cc3)c2cc1OC [SrcI1] (first compound 0.4 µM, partner dose 2 µM)",188%
6,"CCCCCCCCc1ccc(CCC(N)(CO)CO)cc1 [fingolimod] + Oc1cc(-c2nc(-c3ccccc3)[nH]c2-c2ccncc2)ccc1Cl [L779450] (first compound 2 µM, partner dose 0.2 µM)",118%
7,"C[C@@H](N)c1ccc(C(=O)Nc2ccnc3[nH]ccc23)cc1 + O=S(=O)(c1ccccc1)N(CC(F)(F)F)c1ccc(C(O)(C(F)(F)F)C(F)(F)F)cc1 [T0901317] (first compound 0.4 µM, partner dose 1.4 µM)",114%
8,"CN(c1ncccc1CNc1nc(Nc2ccc3c(c2)CC(=O)N3)ncc1C(F)(F)F)S(C)(=O)=O + O=c1cc(-c2cccc3c2Sc2ccccc2S3)oc(N2CCOCC2)c1 [KU55933] (first compound 0.08 µM, partner dose 1 µM)",117%
9,"C[C@]1(O)C[C@@H](c2nc(-c3ccc4ccc(-c5ccccc5)nc4c3)c3c(N)nccn32)C1 + CCc1ccc(CCOc2ccc(CC3SC(=O)NC3=O)cc2)nc1 [pioglitazone] (first compound 0.4 µM, partner dose 2 µM)",40.1%
10,"C[C@]1(O)C[C@@H](c2nc(-c3ccc4ccc(-c5ccccc5)nc4c3)c3c(N)nccn32)C1 + COc1ccc2c(c1)CCC1C2CCC2(C)C(NCCCCCCN3C(=O)C=CC3=O)CCC12 [U73122] (first compound 0.4 µM, partner dose 0.4 µM)",95.7%
11,"C[C@]1(O)C[C@@H](c2nc(-c3ccc4ccc(-c5ccccc5)nc4c3)c3c(N)nccn32)C1 + O=C1NC(=O)/C(=C/c2ccc(-c3ccc(F)cc3O)o2)S1 [AS252424] (first compound 0.4 µM, partner dose 1 µM)",201%
12,"CC1(C)CCC(c2ccc(Cl)cc2)=C(CN2CCN(c3ccc(C(=O)NS(=O)(=O)c4ccc(N[C@H](CCN5CCOCC5)CSc5ccccc5)c(S(=O)(=O)C(F)(F)F)c4)cc3)CC2)C1 + O=C(Nc1cccc(Cl)c1)Nc1ncc(CCNc2ncnc3ccsc23)s1 [SNS314] (first compound 0.4 µM, partner dose 0.0008 µM)",207%
13,"C[C@]1(O)C[C@@H](c2nc(-c3ccc4ccc(-c5ccccc5)nc4c3)c3c(N)nccn32)C1 + O=C(Nc1ccccc1)c1cc([N+](=O)[O-])ccc1Cl [GW9662] (first compound 0.4 µM, partner dose 2 µM)",126%
14,"NC1(c2ccc(-c3nc4ccn5c(=O)[nH]nc5c4cc3-c3ccccc3)cc2)CCC1 + Cc1cc(N2CCOCC2)cc2[nH]c(-c3c(NC[C@@H](O)c4cccc(Cl)c4)cc[nH]c3=O)nc12 [BMS536924] (first compound 0.4 µM, partner dose 0.2 µM)",106%
15,"CCN(CC)CCNC(=O)c1c(C)[nH]c(/C=C2\C(=O)Nc3ccc(F)cc32)c1C [sunitinib] + O=c1cc(-c2cccc3c2Sc2ccccc2S3)oc(N2CCOCC2)c1 [KU55933] (first compound 0.4 µM, partner dose 1 µM)",169%
16,"CS(=O)(=O)c1ccc(C(=O)Nc2ccc(Cl)c(-c3ccccn3)c2)c(Cl)c1 [vismodegib] + CN(NC(=O)CC(=O)NN(C)C(=S)c1ccccc1)C(=S)c1ccccc1 [STA4783] (first compound 1 µM, partner dose 0.006 µM)",119%
17,"Cn1cnc2c(F)c(Nc3ccc(Br)cc3Cl)c(C(=O)NOCCO)cc21 [selumetinib] + C=CCNC1=C2C[C@@H](C)C[C@H](OC)[C@H](O)[C@@H](C)/C=C(\C)[C@H](OC(N)=O)[C@@H](OC)/C=C\C=C(/C)C(=O)NC(=CC1=O)C2=O [Tanespimycin] (first compound 0.015 µM, partner dose 0.002 µM)",77.7%
18,"Cn1cnc2c(F)c(Nc3ccc(Br)cc3Cl)c(C(=O)NOCCO)cc21 [selumetinib] + O=S(=O)(c1ccccc1)N(CC(F)(F)F)c1ccc(C(O)(C(F)(F)F)C(F)(F)F)cc1 [T0901317] (first compound 0.015 µM, partner dose 1.4 µM)",78.3%
19,"NC1(c2ccc(-c3nc4ccn5c(=O)[nH]nc5c4cc3-c3ccccc3)cc2)CCC1 + O=C(O)C(=O)Nc1sc2c(c1C(=O)O)CCNC2 [TCS401] (first compound 0.4 µM, partner dose 1.66667 µM)",123%
20,"CC1(C)CCC(c2ccc(Cl)cc2)=C(CN2CCN(c3ccc(C(=O)NS(=O)(=O)c4ccc(N[C@H](CCN5CCOCC5)CSc5ccccc5)c(S(=O)(=O)C(F)(F)F)c4)cc3)CC2)C1 + Nc1nc(F)nc2c1ncn2[C@@H]1O[C@H](CO)[C@@H](O)[C@@H]1O [fludarabine] (first compound 0.4 µM, partner dose 0.2 µM)",453%
21,"Cn1sc(=O)n(Cc2ccccc2)c1=O + C=CCNC1=C2C[C@@H](C)C[C@H](OC)[C@H](O)[C@@H](C)/C=C(\C)[C@H](OC(N)=O)[C@@H](OC)/C=C\C=C(/C)C(=O)NC(=CC1=O)C2=O [Tanespimycin] (first compound 0.4 µM, partner dose 0.002 µM)",57.1%
22,"Cn1cnc2c(F)c(Nc3ccc(Br)cc3Cl)c(C(=O)NOCCO)cc21 [selumetinib] + COc1ccc2c(c1)CCC1C2CCC2(C)C(NCCCCCCN3C(=O)C=CC3=O)CCC12 [U73122] (first compound 0.015 µM, partner dose 0.4 µM)",55.1%
23,"CCCCCCCCc1ccc(CCC(N)(CO)CO)cc1 [fingolimod] + CC(C)(C)c1cnc(CSc2cnc(NC(=O)C3CCNCC3)s2)o1 [SNS-032] (first compound 2 µM, partner dose 0.01 µM)",62.9%
24,"NC(=O)c1ccc(N(C(N)=O)c2c(F)cccc2F)nc1-c1ccc(F)cc1F + COCC[n+]1c2c(n(Cc3cnccn3)c1C)C(=O)c1ccccc1C2=O [YM155] (first compound 0.4 µM, partner dose 0.0004 µM)",77.3%
25,"NC1(c2ccc(-c3nc4ccn5c(=O)[nH]nc5c4cc3-c3ccccc3)cc2)CCC1 + CO[C@@H]1[C@H](N(C)C(=O)c2ccccc2)C[C@H]2O[C@]1(C)n1c3ccccc3c3c4c(c5c6ccccc6n2c5c31)C(=O)NC4 [Midostaurin] (first compound 0.4 µM, partner dose 0.08 µM)",121%
26,"CC1(C)CCC(c2ccc(Cl)cc2)=C(CN2CCN(c3ccc(C(=O)NS(=O)(=O)c4ccc(N[C@H](CCN5CCOCC5)CSc5ccccc5)c(S(=O)(=O)C(F)(F)F)c4)cc3)CC2)C1 + Cn1nnc2c(C(N)=O)ncn2c1=O [temozolomide] (first compound 0.4 µM, partner dose 2 µM)",208%
27,"CN(c1ncccc1CNc1nc(Nc2ccc3c(c2)CC(=O)N3)ncc1C(F)(F)F)S(C)(=O)=O + CO[C@@H]1[C@H](N(C)C(=O)c2ccccc2)C[C@H]2O[C@]1(C)n1c3ccccc3c3c4c(c5c6ccccc6n2c5c31)C(=O)NC4 [Midostaurin] (first compound 0.08 µM, partner dose 0.08 µM)",106%
28,"Cn1sc(=O)n(Cc2ccccc2)c1=O + c1cc(-c2cnn3cc(-c4ccc(OCCN5CCCCC5)cc4)cnc23)ccn1 [Dorsomorphin] (first compound 0.4 µM, partner dose 0.4 µM)",173%
29,"CC(=O)O[C@@]12CO[C@@H]1C[C@H](O)[C@@]1(C)C(=O)[C@H](O)C3=C(C)[C@@H](OC(=O)[C@H](O)[C@@H](NC(=O)OC(C)(C)C)c4ccccc4)C[C@@](O)([C@@H](OC(=O)c4ccccc4)[C@H]21)C3(C)C [Docetaxel] + N#Cc1c(O)c2c(-c3ccc(-c4ccccc4O)cc3)csc2[nH]c1=O [A769662] (first compound 0.0001 µM, partner dose 2 µM)",3720%
30,"Cn1cnc2c(F)c(Nc3ccc(Br)cc3Cl)c(C(=O)NOCCO)cc21 [selumetinib] + OCCn1cc(-c2cnc3nnn(Cc4ccc5ncccc5c4)c3n2)cn1 [PF04217903] (first compound 0.015 µM, partner dose 1 µM)",141%

# Fetched one by one from the list above, 2 records:
row,SMILES,cleaved PARP positive nuclei fraction
10,"C[C@]1(O)C[C@@H](c2nc(-c3ccc4ccc(-c5ccccc5)nc4c3)c3c(N)nccn32)C1 + COc1ccc2c(c1)CCC1C2CCC2(C)C(NCCCCCCN3C(=O)C=CC3=O)CCC12 [U73122] (first compound 0.4 µM, partner dose 0.4 µM)",95.7%
21,"Cn1sc(=O)n(Cc2ccccc2)c1=O + C=CCNC1=C2C[C@@H](C)C[C@H](OC)[C@H](O)[C@@H](C)/C=C(\C)[C@H](OC(N)=O)[C@@H](OC)/C=C\C=C(/C)C(=O)NC(=CC1=O)C2=O [Tanespimycin] (first compound 0.4 µM, partner dose 0.002 µM)",57.1%
